According to paper PMC4568975:

Biological target: Protein phosphatase-1 (PP1) (human (endogenous in SH-SY5Y))
Experiment: co-IP; lysates of SH-SY5Y cells expressing DARPP-32 WT or the T153A mutant, with or without Aβ oligomer (1 μM, 24 h); immunoprecipitation with anti-PP1 antibody followed by Western blot

Row | binding | Binder
1 | binds | DARPP-32 WT (dopamine- and cAMP-regulated phosphoprotein 32 kDa) (protein, UniProt Q9UD71 1-204) MDPKDRKKIQFSVPAPPSQLDPRQVEMIRRRRPTPAMLFRLSEHSSPEEEASPHQRASGEGHHLKSKRPNPCAYTPPSLKAVQRIAESHLQSISNLNENQASEEEDELGELRELGYPREEDEEEEEDDEEEEEEEDSQAEVLKVIRQSAGQKTTCGQGLEGPWERPPPLDESERDGGSEDQVEDPALSEPGEEPQRPSPSEPGT
2 | binds | DARPP-32 T153A mutant (protein, UniProt Q9UD71 1-204) MDPKDRKKIQFSVPAPPSQLDPRQVEMIRRRRPTPAMLFRLSEHSSPEEEASPHQRASGEGHHLKSKRPNPCAYTPPSLKAVQRIAESHLQSISNLNENQASEEEDELGELRELGYPREEDEEEEEDDEEEEEEEDSQAEVLKVIRQSAGQKATCGQGLEGPWERPPPLDESERDGGSEDQVEDPALSEPGEEPQRPSPSEPGT

Results are given in words; binding and its absence hold for the method and conditions named. Binding seen in cells or lysates may run through a third protein. A result given as binding can be weak or reduced; the word gives no strength.
